We go through two molecules from article PMC11252818.

Amino acid sequences for entries named in this document (tags omitted).
UniProt Q9UPY5: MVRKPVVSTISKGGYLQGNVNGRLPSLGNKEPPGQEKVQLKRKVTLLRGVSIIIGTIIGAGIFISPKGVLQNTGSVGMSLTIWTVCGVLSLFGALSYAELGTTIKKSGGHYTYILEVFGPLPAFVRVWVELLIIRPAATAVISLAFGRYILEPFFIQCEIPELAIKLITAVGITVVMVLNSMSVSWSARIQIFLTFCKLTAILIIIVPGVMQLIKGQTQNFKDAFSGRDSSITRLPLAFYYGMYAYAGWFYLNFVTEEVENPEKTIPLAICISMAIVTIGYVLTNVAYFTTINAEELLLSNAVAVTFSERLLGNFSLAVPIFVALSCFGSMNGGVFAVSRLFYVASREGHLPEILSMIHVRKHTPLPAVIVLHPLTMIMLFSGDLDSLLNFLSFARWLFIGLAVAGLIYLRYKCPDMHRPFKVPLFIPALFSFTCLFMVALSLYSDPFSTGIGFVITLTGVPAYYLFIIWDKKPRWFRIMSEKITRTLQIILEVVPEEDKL

These are yes or no findings as the source states them, for the method shown. In cells and extracts the contact can be indirect. Some binding calls cover weakened binding; strength is not graded here.

For this assay, the target named is FLAG-SLC7A11 (UniProt Q9UPY5). The experiment in a line: co-IP; HEK293 cells transfected with FLAG-SLC7A11, IP-IB of endogenous receptor proteins (Fig. 2A).

B1: endogenous KLHL13 (protein, UniProt Q9P2N7 1-655)
chain: MPLKWKTSSPAIWKFPVPVLKTSRSTPLSPAYISLVEEEDQHMKLSLGGSEMGLSSHLQSSKAGPTRIFTSNTHSSVVLQGFDQLRLEGLLCDVTLMPGDTDDAFPVHRVMMASASDYFKAMFTGGMKEQDLMCIKLHGVSKVGLRKIIDFIYTAKLSLNMDNLQDTLEAASFLQILPVLDFCKVFLISGVTLDNCVEVGRIANTYNLTEVDKYVNSFVLKNFPALLSTGEFLKLPFERLAFVLSSNSLKHCTELELFKATCRWLRLEEPRMDFAAKLMKNIRFPLMTPQELINYVQTVDFMRTDNTCVNLLLEASNYQMMPYMQPVMQSDRTAIRSDTTHLVTLGGVLRQQLVVSKELRMYDEKAHEWKSLAPMDAPRYQHGIAVIGNFLYVVGGQSNYDTKGKTAVDTVFRFDPRYNKWMQVASLNEKRTFFHLSALKGYLYAVGGRNAAGELPTVECYNPRTNEWTYVAKMSEPHYGHAGTVYGGVMYISGGITHDTFQKELMCFDPDTDKWIQKAPMTTVRGLHCMCTVGERLYVIGGNHFRGTSDYDDVLSCEYYSPILDQWTPIAAMLRGQSDVGVAVFENKIYVVGGYSWNNRCMVEIVQKYDPDKDEWHKVFDLPESLGGIRACTLTVFPPEETTPSPSRESPLSAP
As for B1, the binding result is listed as “no binding”.

B2: endogenous KCTD10 (protein, UniProt Q9H3F6 1-313)
chain: MEEMSGESVVSSAVPAAATRTTSFKGTSPSSKYVKLNVGGALYYTTMQTLTKQDTMLKAMFSGRMEVLTDSEGWILIDRCGKHFGTILNYLRDGAVPLPESRREIEELLAEAKYYLVQGLVEECQAALQNKDTYEPFCKVPVITSSKEEQKLIATSNKPAVKLLYNRSNNKYSYTSNSDDNMLKNIELFDKLSLRFNGRVLFIKDVIGDEICCWSFYGQGRKIAEVCCTSIVYATEKKQTKVEFPEARIYEETLNILLYEAQDGRGPDNALLEATGGAAGRSHHLDEDEERERIERVRRIHIKRPDDRAHLHQ
In the case of B2, the binding result is “binds”.
